For 8 molecules, binding results are on record in PMC12648486, “A LisH-domain protein interaction map reveals a Lis1-ARIH2-dynein regulatory axis” (iScience, 2025).

Chains of the proteins cited; added tags and fusions are not shown.
UniProt Q9Y4X5: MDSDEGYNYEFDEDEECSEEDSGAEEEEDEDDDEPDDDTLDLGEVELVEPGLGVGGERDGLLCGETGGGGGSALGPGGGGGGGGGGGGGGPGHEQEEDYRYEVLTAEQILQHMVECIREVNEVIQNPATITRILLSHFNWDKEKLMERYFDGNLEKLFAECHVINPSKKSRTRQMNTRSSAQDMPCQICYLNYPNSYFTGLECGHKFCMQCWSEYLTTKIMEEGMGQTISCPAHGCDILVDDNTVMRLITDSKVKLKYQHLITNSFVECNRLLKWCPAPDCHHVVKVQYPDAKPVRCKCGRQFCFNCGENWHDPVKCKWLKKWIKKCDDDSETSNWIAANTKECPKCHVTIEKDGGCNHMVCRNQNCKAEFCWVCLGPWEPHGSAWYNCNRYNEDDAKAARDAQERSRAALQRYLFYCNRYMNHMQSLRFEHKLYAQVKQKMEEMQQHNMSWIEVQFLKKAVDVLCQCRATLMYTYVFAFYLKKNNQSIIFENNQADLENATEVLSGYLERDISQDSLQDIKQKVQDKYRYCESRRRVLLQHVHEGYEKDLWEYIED
UniProt O95376: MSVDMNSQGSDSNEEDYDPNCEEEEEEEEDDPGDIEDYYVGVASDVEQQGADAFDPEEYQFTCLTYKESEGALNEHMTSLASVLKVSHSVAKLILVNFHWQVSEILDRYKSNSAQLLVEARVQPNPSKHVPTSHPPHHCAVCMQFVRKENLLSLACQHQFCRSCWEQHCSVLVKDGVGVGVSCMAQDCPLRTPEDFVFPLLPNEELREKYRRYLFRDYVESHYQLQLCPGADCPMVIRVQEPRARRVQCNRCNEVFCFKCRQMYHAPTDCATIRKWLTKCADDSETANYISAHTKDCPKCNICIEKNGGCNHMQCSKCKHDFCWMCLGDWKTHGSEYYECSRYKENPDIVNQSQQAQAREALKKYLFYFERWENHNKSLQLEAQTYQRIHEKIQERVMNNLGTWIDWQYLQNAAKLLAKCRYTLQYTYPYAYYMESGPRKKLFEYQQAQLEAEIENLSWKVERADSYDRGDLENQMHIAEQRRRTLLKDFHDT
UniProt Q13619: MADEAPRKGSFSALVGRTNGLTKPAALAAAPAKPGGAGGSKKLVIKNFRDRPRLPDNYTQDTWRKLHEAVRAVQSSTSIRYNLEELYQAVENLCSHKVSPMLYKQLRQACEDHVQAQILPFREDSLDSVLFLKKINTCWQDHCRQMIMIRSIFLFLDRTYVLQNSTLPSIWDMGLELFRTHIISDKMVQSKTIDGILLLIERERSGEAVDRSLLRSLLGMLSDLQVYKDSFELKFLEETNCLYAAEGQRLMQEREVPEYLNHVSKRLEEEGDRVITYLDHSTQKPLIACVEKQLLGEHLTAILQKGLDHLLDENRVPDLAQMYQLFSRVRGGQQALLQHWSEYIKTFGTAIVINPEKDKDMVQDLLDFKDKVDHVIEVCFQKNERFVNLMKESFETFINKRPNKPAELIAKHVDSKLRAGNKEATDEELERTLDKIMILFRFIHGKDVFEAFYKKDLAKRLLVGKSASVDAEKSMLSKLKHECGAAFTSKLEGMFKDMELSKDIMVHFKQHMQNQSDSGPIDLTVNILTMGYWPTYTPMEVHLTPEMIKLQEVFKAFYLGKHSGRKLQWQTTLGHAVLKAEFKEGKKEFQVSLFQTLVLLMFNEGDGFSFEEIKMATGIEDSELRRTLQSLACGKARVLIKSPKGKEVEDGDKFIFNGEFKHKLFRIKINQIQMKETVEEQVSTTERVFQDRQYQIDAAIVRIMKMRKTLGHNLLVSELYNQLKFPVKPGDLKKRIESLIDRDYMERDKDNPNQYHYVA
UniProt Q13620: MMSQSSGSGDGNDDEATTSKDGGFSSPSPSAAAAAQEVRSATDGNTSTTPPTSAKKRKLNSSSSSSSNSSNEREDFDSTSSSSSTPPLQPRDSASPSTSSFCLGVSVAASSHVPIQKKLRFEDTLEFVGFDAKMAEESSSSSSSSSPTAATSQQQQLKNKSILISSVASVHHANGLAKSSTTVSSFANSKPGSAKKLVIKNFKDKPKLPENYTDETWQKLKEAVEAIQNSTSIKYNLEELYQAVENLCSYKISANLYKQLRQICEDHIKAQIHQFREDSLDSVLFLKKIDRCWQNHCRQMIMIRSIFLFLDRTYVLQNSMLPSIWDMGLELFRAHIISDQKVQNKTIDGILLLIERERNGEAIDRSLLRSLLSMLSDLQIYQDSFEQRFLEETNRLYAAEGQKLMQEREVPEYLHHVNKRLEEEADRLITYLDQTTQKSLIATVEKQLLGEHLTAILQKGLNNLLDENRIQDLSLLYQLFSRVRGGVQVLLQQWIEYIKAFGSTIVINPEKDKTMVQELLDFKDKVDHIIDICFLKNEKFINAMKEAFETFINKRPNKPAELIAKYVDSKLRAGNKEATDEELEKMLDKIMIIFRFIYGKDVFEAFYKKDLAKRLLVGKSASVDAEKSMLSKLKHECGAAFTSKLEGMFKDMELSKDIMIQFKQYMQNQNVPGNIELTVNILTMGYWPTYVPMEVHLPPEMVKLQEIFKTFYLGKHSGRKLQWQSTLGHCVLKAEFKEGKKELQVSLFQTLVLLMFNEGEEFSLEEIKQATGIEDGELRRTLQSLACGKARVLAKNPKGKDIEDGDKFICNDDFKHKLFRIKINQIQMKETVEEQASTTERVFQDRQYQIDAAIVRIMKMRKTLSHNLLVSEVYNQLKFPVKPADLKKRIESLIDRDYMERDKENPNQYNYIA
UniProt Q93034: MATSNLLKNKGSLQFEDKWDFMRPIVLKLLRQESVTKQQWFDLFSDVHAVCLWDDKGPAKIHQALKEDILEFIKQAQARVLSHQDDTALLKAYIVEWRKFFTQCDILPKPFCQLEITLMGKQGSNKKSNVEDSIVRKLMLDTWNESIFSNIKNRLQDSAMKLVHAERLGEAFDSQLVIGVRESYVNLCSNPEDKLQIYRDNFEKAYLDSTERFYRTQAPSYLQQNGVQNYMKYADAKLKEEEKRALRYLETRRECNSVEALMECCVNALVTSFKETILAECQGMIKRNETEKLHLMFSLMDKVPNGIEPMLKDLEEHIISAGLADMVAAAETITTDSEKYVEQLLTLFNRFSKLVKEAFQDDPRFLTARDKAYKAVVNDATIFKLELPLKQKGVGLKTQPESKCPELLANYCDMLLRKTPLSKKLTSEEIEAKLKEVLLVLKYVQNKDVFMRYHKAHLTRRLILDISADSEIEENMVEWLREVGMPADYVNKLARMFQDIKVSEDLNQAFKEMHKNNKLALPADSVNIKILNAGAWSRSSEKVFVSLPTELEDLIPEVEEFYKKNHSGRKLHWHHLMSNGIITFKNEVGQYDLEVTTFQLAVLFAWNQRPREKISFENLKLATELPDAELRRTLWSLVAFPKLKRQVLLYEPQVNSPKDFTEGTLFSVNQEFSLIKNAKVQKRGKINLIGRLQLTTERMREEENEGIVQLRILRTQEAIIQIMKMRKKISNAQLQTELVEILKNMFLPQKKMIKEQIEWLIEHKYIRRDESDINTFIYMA
UniProt Q14999: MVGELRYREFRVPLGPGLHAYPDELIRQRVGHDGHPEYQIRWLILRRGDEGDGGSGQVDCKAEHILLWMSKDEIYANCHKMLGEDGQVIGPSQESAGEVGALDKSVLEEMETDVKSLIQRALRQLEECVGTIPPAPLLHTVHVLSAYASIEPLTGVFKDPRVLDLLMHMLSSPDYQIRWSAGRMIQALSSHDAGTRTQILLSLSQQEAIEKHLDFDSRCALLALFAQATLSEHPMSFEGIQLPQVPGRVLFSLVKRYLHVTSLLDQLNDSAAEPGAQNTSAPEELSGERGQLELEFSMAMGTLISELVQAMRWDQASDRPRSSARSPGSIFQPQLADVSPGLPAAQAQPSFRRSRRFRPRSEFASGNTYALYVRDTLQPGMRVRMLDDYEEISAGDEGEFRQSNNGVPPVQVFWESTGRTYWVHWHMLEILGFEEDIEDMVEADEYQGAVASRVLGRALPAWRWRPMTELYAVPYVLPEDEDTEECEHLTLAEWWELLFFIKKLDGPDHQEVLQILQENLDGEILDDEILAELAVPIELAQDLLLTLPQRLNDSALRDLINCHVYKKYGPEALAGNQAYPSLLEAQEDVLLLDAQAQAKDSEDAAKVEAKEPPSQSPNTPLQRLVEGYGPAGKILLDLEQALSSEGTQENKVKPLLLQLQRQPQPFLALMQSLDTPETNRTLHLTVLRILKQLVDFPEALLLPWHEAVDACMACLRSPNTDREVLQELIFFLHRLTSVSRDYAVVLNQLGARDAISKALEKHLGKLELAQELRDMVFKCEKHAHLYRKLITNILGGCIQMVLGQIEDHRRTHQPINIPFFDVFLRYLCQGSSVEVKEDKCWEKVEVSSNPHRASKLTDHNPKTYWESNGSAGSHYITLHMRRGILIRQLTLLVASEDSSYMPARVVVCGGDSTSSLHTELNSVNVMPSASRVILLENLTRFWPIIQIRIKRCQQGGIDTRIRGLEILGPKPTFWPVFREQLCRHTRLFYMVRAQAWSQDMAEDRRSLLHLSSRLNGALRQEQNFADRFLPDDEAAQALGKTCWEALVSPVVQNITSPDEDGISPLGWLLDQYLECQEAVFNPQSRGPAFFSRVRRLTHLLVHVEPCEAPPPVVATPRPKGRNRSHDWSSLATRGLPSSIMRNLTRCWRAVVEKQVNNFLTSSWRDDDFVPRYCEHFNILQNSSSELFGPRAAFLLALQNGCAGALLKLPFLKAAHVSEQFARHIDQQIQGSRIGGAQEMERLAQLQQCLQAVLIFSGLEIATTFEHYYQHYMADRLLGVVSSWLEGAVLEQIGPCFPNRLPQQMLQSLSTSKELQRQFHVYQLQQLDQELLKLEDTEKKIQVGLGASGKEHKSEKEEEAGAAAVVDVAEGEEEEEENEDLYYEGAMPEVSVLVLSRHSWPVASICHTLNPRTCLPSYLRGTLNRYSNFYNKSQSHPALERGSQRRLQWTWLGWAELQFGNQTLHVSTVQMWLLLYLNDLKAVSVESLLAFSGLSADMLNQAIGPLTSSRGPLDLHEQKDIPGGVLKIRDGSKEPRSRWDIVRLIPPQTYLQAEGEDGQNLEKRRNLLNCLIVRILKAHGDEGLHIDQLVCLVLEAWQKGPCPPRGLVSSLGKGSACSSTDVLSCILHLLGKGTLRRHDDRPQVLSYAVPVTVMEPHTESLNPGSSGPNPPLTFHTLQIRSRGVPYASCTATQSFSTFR

No constants are given. Whether binding was seen depends on the method and setting. In cells and extracts the contact can be indirect. Here binding means that the protein was enriched with, or labelled near, the bait; the list need not be complete. No binding means not detected with the bait.

The assay addresses T1, SFB-Lis1 WT (human) (UniProt P43034).
T1 sequence: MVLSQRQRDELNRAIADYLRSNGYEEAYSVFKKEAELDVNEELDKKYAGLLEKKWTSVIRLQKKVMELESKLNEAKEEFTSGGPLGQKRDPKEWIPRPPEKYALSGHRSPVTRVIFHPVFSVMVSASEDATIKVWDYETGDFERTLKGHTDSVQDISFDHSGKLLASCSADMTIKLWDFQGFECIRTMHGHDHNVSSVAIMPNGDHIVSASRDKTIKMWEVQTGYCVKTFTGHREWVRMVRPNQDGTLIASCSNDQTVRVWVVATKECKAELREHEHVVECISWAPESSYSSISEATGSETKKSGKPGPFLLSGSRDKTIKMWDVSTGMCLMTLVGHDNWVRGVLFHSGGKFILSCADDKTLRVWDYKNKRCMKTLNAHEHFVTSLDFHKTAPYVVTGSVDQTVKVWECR
Nature of the assay: affinity purification with mass spectrometry; tandem affinity purification (streptavidin-sepharose, biotin elution, then S-protein-agarose) of SFB-tagged LisH proteins from HEK 293T lysate in NETN buffer, 4 °C; LC-MS/MS; filtered with CRAPome (SAINT 0.7, FCA ≥1.8, FCB ≥2, IS > 1).

In the case of “ARIH1 (endogenous) (from UniProt Q9Y4X5 1-557) (enzyme)”, the binding entry was “binds”. Next, “ARIH2 (endogenous) (from UniProt O95376 1-493) (enzyme)”: “binds”. Then “Cul4A (endogenous) (from UniProt Q13619 1-759)”, with “binds”.

As to “Cul4B (endogenous) (from UniProt Q13620 1-913)”, the binding result is listed as “binds”. Then “Cul5 (endogenous) (from UniProt Q93034 1-780)”, with “no binding”; and “Cul7 (endogenous) (from UniProt Q14999 1-1698)”, with “binds”; and “Cul9 (endogenous) (from UniProt Q8IWT3 1-2517)”, with “binds”.

B1: Nde1 (endogenous) (protein, UniProt Q9NXR1 1-335)
chain: MEDSGKTFSSEEEEANYWKDLAMTYKQRAENTQEELREFQEGSREYEAELETQLQQIETRNRDLLSENNRLRMELETIKEKFEVQHSEGYRQISALEDDLAQTKAIKDQLQKYIRELEQANDDLERAKRATIMSLEDFEQRLNQAIERNAFLESELDEKENLLESVQRLKDEARDLRQELAVQQKQEKPRTPMPSSVEAERTDTAVQATGSVPSTPIAHRGPSSSLNTPGSFRRGLDDSTGGTPLTPAARISALNIVGDLLRKVGALESKLASCRNLVYDQSPNRTGGPASGRSSKNRDGGERRPSSTSVPLGDKGLDTSCRWLSKSTTRSSSSC
Turning to B1, the binding entry is on record as “binds”.
